Data: the supplement of paper PMC9578143, “Small-Molecule Ebselen Binds to YTHDF Proteins Interfering with the Recognition of N^6-Methyladenosine-Modified RNAs” (ACS Pharmacology & Translational Science, 2022)
The other results are listed elsewhere or left out. Baselines shift from plate to plate; read single values as rough.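 Hits were defined as a z-score below −3.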 Starred links: 1 amine or outer side, 2 acyl side, 3 side chain; linkers in the order of their positions; H or OH if unused. Positions of bridges follow the written chain, without caps; N, C: chain ends. Non-standard residues stand in square brackets, D forms with d. Residues, ends and D or L forms follow the SMILES beside them. ξ: configuration not given here. *: point of attachment. X1 = N=C1NCCC([C@H](N[*:1])C(=O)[*:2])N1; ΔAla(Z-3-ureido) = NC(=O)N/C=C(\N)C(=O)O; ξβ3hOrn = NCCCC(N)CC(=O)*; Dap = NC[C@H](N)C(=O)O

Target: T1, YTHDF1 YTH domain (aa 365-554) (UniProt Q9BYJ9)
T1 sequence (whole entry): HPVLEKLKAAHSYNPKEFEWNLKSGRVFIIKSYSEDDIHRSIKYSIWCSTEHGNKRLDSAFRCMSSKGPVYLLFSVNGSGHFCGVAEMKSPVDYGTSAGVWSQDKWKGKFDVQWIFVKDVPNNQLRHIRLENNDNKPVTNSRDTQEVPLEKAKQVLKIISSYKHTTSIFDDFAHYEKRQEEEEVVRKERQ
Experiment: tryptophan fluorescence intensity z-score (mean); higher = higher fluorescence, less quenching (negative = binding / quenching)
Conditions: 10 µM

Row | SMILES | tryptophan fluorescence intensity z-score
1 | CCOC(=O)c1c(C)cc(OC)cc1O (plate: M 15-16) | inactive: 0.232
2 | CCN(CC)CCOCCOC(=O)C1(c2ccccc2)CCCC1 (plate: M 7-8) | inactive: 0.291
3 | Cc1cc(C(C)(C)C)cc(C)c1CC1=NCCN1 (plate: M 5-6) | inactive: -0.0754
4 | CCN(CCCCOC(=O)c1ccc(OC)c(OC)c1)C(C)Cc1ccc(OC)cc1 (stereo not drawn) (plate: M 7-8) | inactive: -0.0615
5 | CC(C)(CO)[C@@H](O)C(=O)NCCC(=O)O [PANTOTHENICACID(d)Nasalt] (plate: M 13-14) | inactive: 0.365
6 | CC(=O)Nc1ccc(OC(=O)c2ccccc2O)cc1 (plate: M 21-22) | inactive: 0.942
7 | COc1cc2nc(N3CCN(C(=O)C4COc5ccccc5O4)CC3)nc(N)c2cc1OC (stereo not drawn) (plate: M 11-12) | inactive: -0.678
8 | O=C(O)c1cc(=O)c(O)c2c(O)c(O)c(O)cc2c1 (plate: M 21-22) | inactive: -1.09
9 | COC(=O)C[C@H]1C2(C)CC34OC5(C)O[C@@]6([C@H](OC(C)=O)C(OC(C)=O)[C@]7(C)C(/C(=C(/O)C(C)C)C(=O)O[C@H]7c7ccoc7)[C@@]6(O5)[C@H](OC(C)=O)[C@@]3(O)C2OC(=O)C(C)C)[C@]14C (stereo partly drawn) (plate: M 13-14) | inactive: 0.578
10 | COc1cc(OC)c2ccc(=O)oc2c1 (plate: M 17-18) | inactive: 0.017
11 | Cc1cc(O)c2c(c1O)C(=O)c1c(O)cc(C)c(O)c1C2=O (plate: M 15-16) | inactive: 0.646
12 | CCCCC1C(=O)N(c2ccccc2)N(c2ccc(O)cc2)C1=O (stereo not drawn) (plate: M 3-4) | inactive: 0.07
13 | COc1ccc(-c2oc3cc(OC)c(OC)c(OC)c3c(=O)c2OC)cc1OC (plate: M 19-20) | inactive: 0.254
14 | CCOC(=O)Nc1nc2ccccc2[nH]1 (plate: M 11-12) | inactive: 0.463
15 | NC[C@H]1O[C@H](O[C@H]2[C@H](O)[C@@H](O[C@H]3O[C@H](CO)[C@@H](O)[C@H](N)[C@H]3O)[C@H](N)C[C@@H]2N)[C@H](N)C[C@@H]1O (plate: M 5-6) | inactive: -0.0219
16 | C[C@@H]1C/C=C/C=C/C=C/C=C/[C@H](O[C@@H]2O[C@H](C)[C@@H](O)[C@H](N)[C@@H]2O)C[C@@H]2O[C@](O)(C[C@@H](O)C[C@H]3O[C@@H]3/C=C/C(=O)O1)C[C@H](O)[C@H]2C(=O)O (plate: M 11-12) | inactive: -0.403
17 | O=C(O)C1=CC(=C(c2ccc(O)c(C(=O)O)c2)c2ccc(O)c(C(=O)O)c2)C=CC1=O (plate: M 23-24) | active: -3.01

From compound 13 up to 14, copied from above:
Row | SMILES | tryptophan fluorescence intensity z-score
13 | COc1ccc(-c2oc3cc(OC)c(OC)c(OC)c3c(=O)c2OC)cc1OC (plate: M 19-20) | inactive: 0.254
14 | CCOC(=O)Nc1nc2ccccc2[nH]1 (plate: M 11-12) | inactive: 0.463

The results go on.

Row | SMILES | tryptophan fluorescence intensity z-score
18 | CN(C(=O)CN(CCO)CC(=O)N(C)C(C)(C)Cc1ccccc1)C(C)(C)Cc1ccccc1 (plate: M 9-10) | inactive: -0.482
19 | Cc1cc(C)nc(NS(=O)(=O)c2ccc(N)cc2)n1 (plate: M 5-6) | inactive: -0.218
20 | CC1(C)O[C@@H]2C[C@H]3[C@@H]4C[C@H](F)C5=CC(=O)C=C[C@]5(C)[C@@]4(F)[C@@H](O)C[C@]3(C)[C@]2(C(=O)CO)O1 (plate: M 3-4) | inactive: -0.363
21 | CC(C)=CCc1c2c(c3occ(-c4ccc(O)c(O)c4)c(=O)c3c1O)C=CC(C)(C)O2 (plate: M 15-16) | inactive: 0.732
22 | COc1cc(NS(=O)(=O)c2ccc(N)cc2)ncn1 (plate: M 7-8) | inactive: 0.181
23 | NCCC(=O)N[C@@H](Cc1c[nH]cn1)C(=O)O (plate: M 17-18) | inactive: 0.613
24 | CCCCCCNC(=O)n1cc(F)c(=O)[nH]c1=O (plate: M 23-24) | inactive: 0.00195
25 | C[C@@H]1NC(=O)[C@@H](N)CNC(=O)[C@H](C2CCNC(=N)N2)NC(=O)/C(=C/NC(N)=O)NC(=O)[C@H](CNC(=O)CC(N)CCCN)NC1=O.N=C1NCCC([C@@H]2NC(=O)/C(=C/NC(N)=O)NC(=O)[C@H](CNC(=O)CC(N)CCCN)NC(=O)[C@H](CO)NC(=O)[C@@H](N)CNC2=O)N1 (stereo partly drawn) (plate: M 1-2) (H-[Dap]S[Dap](ξβ3hOrn)[ΔAla(Z-3-ureido)][X1]; lactam 1-C) | inactive: -0.0317
26 | CC(C)=CCC1=C(O)C(=O)c2ccccc2C1=O (plate: M 17-18) | inactive: 0.201
27 | COc1ccc(Cl)cc1C(=O)NCCc1ccc(S(=O)(=O)NC(=O)NC2CCCCC2)cc1 (plate: M 13-14) | inactive: 0.188
28 | CO/N=C(\C(=O)N[C@@H]1C(=O)N2C(C(=O)OC(C)OC(C)=O)=C(COC(N)=O)CS[C@H]12)c1ccco1 (stereo partly drawn) (plate: M 9-10) | inactive: -0.158
29 | O=c1cc(-c2ccccc2)oc2cccc(O)c12 (plate: M 17-18) | inactive: -0.133
30 | COC(=O)Nc1nc2cc([S+]([O-])c3ccccc3)ccc2[nH]1 (stereo not drawn) (plate: M 9-10) | inactive: -0.183
31 | C=CCCCCCCCCC(=O)[O-].C=CCCCCCCCCC(=O)[O-].[Zn+2] (plate: M 11-12) | inactive: 0.504
32 | COc1ccccc1OCC(O)COC(N)=O (stereo not drawn) (plate: M 3-4) | inactive: 0.183
33 | Nc1c2c(nc3ccccc13)CCCC2O (stereo not drawn) (plate: M 23-24) | inactive: 0.452
